This passage reports binding results from US20240383953A1, “NOVEL NAN[…] NANOG PRION-LIKE REPEATS” (BAYLOR COLLEGE OF MEDICINE, priority 2021, published 2024).

Chains of the proteins cited; added tags and fusions are not shown. Residues count along the entry.
NANOG CTD (C-terminal domain) (Q9H9S0, residues 154-305): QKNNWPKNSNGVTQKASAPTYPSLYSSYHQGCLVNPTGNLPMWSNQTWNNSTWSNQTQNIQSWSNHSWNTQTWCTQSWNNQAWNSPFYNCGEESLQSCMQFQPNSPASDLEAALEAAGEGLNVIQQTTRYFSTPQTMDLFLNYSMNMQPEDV
NANOG WR (tryptophan repeat domain) (Q9H9S0, residues 196-240): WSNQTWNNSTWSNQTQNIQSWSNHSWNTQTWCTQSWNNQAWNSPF

The target in assay [1] is NANOG WR (tryptophan repeat domain) (human) (UniProt Q9H9S0). The experiment in a line: SDD-AGE gels, stain-free and ThT-stained.
In assay [2] the target is NANOG CTD (C-terminal domain) (human) (UniProt Q9H9S0). The assay is described as follows: ThT fluorescence aggregation assay.
Assay [3] shares this target. The experiment in a line: SDD-AGE gels, stain-free and ThT-stained.

No constants are given. Whether binding was seen depends on the method and setting. Some binding calls cover weakened binding; strength is not graded here.

With “NANOG WR (tryptophan repeat domain) (from UniProt Q9H9S0 196-240)”, in assay [1], the binding entry is on record as “binds”.
As to “NANOG CTD (C-terminal domain) (from UniProt Q9H9S0 154-305)”, the binding entry in assay [2] and in assay [3] was “binds” each time.
